Experiment: reversed-phase LC retention time (C18, 15 min MeOH gradient); higher = more hydrophobic / later elution
Conditions: ionization mode: ESI-; ion species: [M-H]-
Experimental: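 Reference mixture of environmental contaminants analysed by RP-LC (BEH C18, 50 °C; ESI+ with water/MeOH plus formic acid and ammonium formate, ESI- with ammonium bicarbonate) coupled to a timsTOF Pro 2 with trapped ion mobility in nitrogen (ramp/accumulation 100 ms). CCS was calibrated with Agilent tune mix (CCS compendium) and averaged over five injections at 0.5-500 ng/mL. The table reports the lowest-CCS (putative monomer) peak; retention times are on the same gradient.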

## CC(C)(C)c1ccc(O)cc1 [4-tert-Butylphenol]
  reversed-phase LC retention time: 14.4 min

From the supplement of paper PMC12613149
